Measured values: the supplement of paper PMC7024190
Structures can show the parent of a compound that is named as a salt. The list shows a part of the results. Single values are uncertain here, since repeats match poorly.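 Human embryonic kidney cells were transiently transfected with a plasmid bearing a Renilla luciferase gene under the HSV-TK promoter. This first-round screen tests roughly ten thousand compounds for ones that increase reporter output.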

Tested on: HEK 293FT
Assay: log relative Renilla luciferase luminescence (reporter expression vs reference, reference not stated) (log (base not stated)); higher = higher recombinant reporter expression
Conditions: 10 µM; time after transfection 48 h

Row | Structure (SMILES) | log
1 | CC1(C)C(=O)C=C[C@@]2(C)C1=C(O)C(=O)[C@]1(C)[C@@H]2CC[C@@]2(C)[C@H](c3ccoc3)C[C@H]3O[C@]321 [cedrelone] | -1.39
2 | COc1cc2c(cc1O)C[C@H]1c3c(cc(O)c(OC)c3-2)CCN1C [boldine] | -0.25
3 | CCC1(CC)C(=O)NC(=O)NC1=O [barbital] | 0.00695
4 | O=C1CCO1 [propiolactone] | 0.114
5 | Cc1c(O)c(O)cc2c1CC=C1[C@@]2(C)CC[C@@]2(C)[C@@H]3C[C@](C)(C(=O)O)CC[C@]3(C)CC[C@]12C [dihydrocelastrol] | -0.884
6 | C[C@@H]1CC[C@]2(NC1)O[C@H]1C[C@H]3[C@@H]4CC=C5C[C@@H](O)CC[C@]5(C)[C@H]4CC[C@]3(C)[C@H]1[C@@H]2C [solasodine] | 0.205
7 | O=C1C(Cl)=C(Cl)C(=O)C(Cl)=C1Cl [chloranil] | -0.178
8 | COc1ccc(OC)c(C(O)C(C)N)c1 (stereo not given) [methoxamine hydrochloride] | -0.0548
9 | CC([C@H](O)c1ccccc1)N(C)C (stereo partly drawn) [n-methyl (-)ephedrine [1r,2s]] | -0.0235
10 | Cc1ncc(C[n+]2csc(CCO)c2C)c(=O)[nH]1 [oxythiamine chloride hydrochloride] | 0.0161
11 | CCC(=O)O[C@H]1CC[C@H]2[C@@H]3CCC4=CC(=O)CC[C@]4(C)[C@H]3CC[C@]12C [testosterone propionate] | 0.154
12 | COc1cc([C@@H]2c3cc4c(cc3[C@@H](O)[C@H]3COC(=O)[C@H]23)OCO4)cc(OC)c1O [4'-demethylepipodophyllotoxin] | -0.0702
13 | C[C@@]12C(=O)OC(=O)[C@]1(C)[C@H]1CC[C@@H]2O1 [cantharidin] | -1.29
14 | COC(C)(C)CCC[C@H](C)C/C=C/C(C)=C/C(=O)OC(C)C [methoprene (s)] | 0.0025
15 | CCCC(C)(COC(N)=O)COC(=O)NC(C)C (stereo not given) [carisoprodol] | -0.0702
16 | Cl[C@H]1[C@H](Cl)[C@@H](Cl)[C@@H](Cl)[C@H](Cl)[C@H]1Cl [lindane] | 0.141
17 | Oc1ccc(Cl)cc1Cc1cc(Cl)ccc1O [dichlorophen] | -0.491
18 | CC(O)CN1CCN(CC(=O)[O-])CCN(CC(=O)[O-])CCN(CC(=O)[O-])CC1.[Gd+3] (stereo not given) [gadoteridol] | 0.0289
19 | CC(=O)O[C@@H]1C[C@H]2C(C)(C)C(=O)C=C[C@]2(C)[C@H]2CC[C@]3(C)C(=CC(=O)O[C@H]3c3ccoc3)[C@@]21C [deoxygedunin] | -0.124
20 | N[C@@H]1C[C@H]1c1ccccc1.N[C@H]1C[C@@H]1c1ccccc1 [tranylcypromine sulfate] | 0.26

An excerpt of the results above:
Row | Structure (SMILES) | log
2 | COc1cc2c(cc1O)C[C@H]1c3c(cc(O)c(OC)c3-2)CCN1C [boldine] | -0.25
3 | CCC1(CC)C(=O)NC(=O)NC1=O [barbital] | 0.00695
